These are yes or no findings as the source states them, for the method shown. Some entries that bind do so weakly or less than the wild type.
Molecular target: Dipeptidase 3 (human (endogenous in spermatozoa)) (UniProt Q9H4B8)
Test: SDS-PAGE and Western blot; 20 ug total protein of WT and rs35033974 homozygous spermatozoa lysate on 4-15% SDS-PAGE, PVDF, rabbit polyclonal anti-DPEP3; bands at 75 kDa (monomers) and 150 kDa (dimers)

B1: Dipeptidase 3 (protein, UniProt Q9H4B8 36-463)
chain: AETTPGAPRALSTLGSPSLFTTPGVPSALTTPGLTTPGTPKTLDLRGRAQALMRSFPLVDGHNDLPQVLRQRYKNVLQDVNLRNFSHGQTSLDRLRDGLVGAQFWSASVSCQSQDQTAVRLALEQIDLIHRMCASYSELELVTSAEGLNSSQKLACLIGVEGGHSLDSSLSVLRSFYVLGVRYLTLTFTCSTPWAESSTKFRHHMYTNVSGLTSFGEKVVEELNRLGMMIDLSYASDTLIRRVLEVSQAPVIFSHSAARAVCDNLLNVPDDILQLLKKNGGIVMVTLSMGVLQCNLLANVSTVADHFDHIRAVIGSEFIGIGGNYDGTGRFPQGLEDVSTYPVLIEELLSRSWSEEELQGVLRGNLLRVFRQVEKVREESRAQSPVEAEFPYGQLSTSCHSHLVPQNGHQATHLEVTKQPTNRVPWRS
binding: binds

Source: article PMC6356071
